{"sequences": {"note": "Amino acid sequences for entries named in this document (tags omitted).", "UniProt P50406, whole entry": "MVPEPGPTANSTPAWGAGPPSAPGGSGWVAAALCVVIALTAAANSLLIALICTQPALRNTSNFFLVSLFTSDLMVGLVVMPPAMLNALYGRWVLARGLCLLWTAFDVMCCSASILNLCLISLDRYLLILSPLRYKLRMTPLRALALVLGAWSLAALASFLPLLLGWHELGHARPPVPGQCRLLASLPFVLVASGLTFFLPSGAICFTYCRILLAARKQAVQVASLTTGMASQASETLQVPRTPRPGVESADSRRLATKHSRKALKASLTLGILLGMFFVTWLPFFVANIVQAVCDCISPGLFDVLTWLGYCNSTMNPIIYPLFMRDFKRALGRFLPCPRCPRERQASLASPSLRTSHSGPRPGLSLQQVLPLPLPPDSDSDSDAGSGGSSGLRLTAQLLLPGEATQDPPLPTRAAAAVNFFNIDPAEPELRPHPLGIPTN"}, "source": "patent US20090005417A1", "about": "“Substituted Indazolyl Sulfonamide and 2,3-Dihydro-Indolyl Sulfonamide Compounds, their Preparation and Use in Medicaments” (LABORATORIOS DEL DR. ESTEVE S.A., priority 2004, published 2009)", "molecular_target": "5HT6-human recombinant receptor (Homo sapiens, UniProt P50406)", "test": "Binding to serotonin receptor 5-HT6 ([3H]-LSD radioligand)", "details": "membranes of HEK-293 cells expressing the receptor; [3H]-LSD 2.7 nM; 60 min at 37° C.", "experimental": "Cell membranes of HEK-293 cells expressing the 5HT6-human recombinant receptor were supplied by Receptor Biology. In said membranes the receptor concentration is 2.18 pmol/mg protein and the protein concentration is 9.17 mg/ml. The experimental protocol follows the method of B. L. Roth et al. [B. L. Roth, S. C. Craigo, M. S. Choudhary, A. Uluer, F. J. Monsma, Y. Shen, H. Y. Meltzer, D. R. Sibley: Binding of Typical and Atypical Antipsychotic Agents to 5-Hydroxytryptamine-6 and Hydroxytryptamine-7 Receptors. The Journal of Pharmacology and Experimental Therapeutics, 1994, 268, 1403] with the following slight changes. The respective part of the literature description is hereby incorporated by reference and forms part of the disclosure.\nThe commercial membrane is diluted (1:40 dilution) with the binding buffer: 50 mM Tris-HCl, 10 mM MgCl2, 0.5 mM EDTA (pH 7.4). […] Non-specific binding is determined in the presence of 100 μM of serotonin. […] The inhibition constants (Ki, nM) were calculated by non-linear regression analysis using the program EBDA/LIGAND described in Munson and Rodbard, Analytical Biochemistry, 1980, 107, 220, the respective part of which is hereby incorporated by reference and forms part of the disclosure.\nThe binding of the substituted indazolyl sulfonamide or 2,3-dihydro-indolyl sulfonamide compounds to the 5-HT6 receptor was determined as described above.", "note": "pKi: −log10 of the molar value. The structures given here were assigned with low confidence; some may be wrong.", "data": [{"smiles": "CN1CCC(c2n[nH]c3ccc(NS(=O)(=O)c4ccc5ccccc5c4)cc23)CC1", "values": [{"measurement": "pKi", "result": 6.84}]}]}
